Results: PubChem BioAssay AID2685 (National Center for Advancing Translational Sciences (NCATS), 2010)
Some of the results follow. Further columns of the screen follow, without active or inactive calls. Most of these compounds were active or inconclusive in the main read-out, so they are no random draw. Words in brackets tell the shape of the fitted curve; partial curves, single points and poor fits give uncertain potencies.

Test: qHTS Assay for Lipid Storage Modulators in Drosophila S3 Cells;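 on cell number change: cells counted by Cell Tracker Red CMTPX staining in the red channel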
Settings: BODIPY lipid droplet fluorescence, 18-24 h; for cell number change: measured here: cell count max response, cells fed with added oleic acid
Method in brief: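 Drosophila S3 cells got compounds at several concentrations plus oleic acid (400 uM solution). Laser-scanning cytometry with 488 nm excitation read lipid droplets at 500-530 nm and cells at 575-640 nm. Percent activity was relative to 20 uM Triacsin C.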

[1] = measured here: lipid fluorescence (Fed channel) AC50, cells fed with added oleic acid
[2] = measured here: cell number channel AC50, cells fed with added oleic acid

Structure (SMILES)	cell number change [%]	AC50 [1]	AC50 [2]
Cc1cc(C)cc(NC(=S)N2CCN(C(=O)c3ccco3)CC2)c1	-24.8		
O=C(Cn1cnc(S(=O)(=O)N2CCCC2)c1)Nc1cccc(F)c1	10	29.1 µM [falling, single point]	
Cc1cc(C)c(C#N)c(SCC2COc3ccccc3O2)n1 (stereo unspecified)	-16.2	2.06 µM [rising, partial curve]	
c1ccc(CCNc2nnnn2-c2ccccc2)cc1	-21.8		
COc1ccc(NC(=O)CN(C)C(=O)c2ccc(-c3ccccc3Cl)o2)cc1		0.366 µM [rising, full curve, poor fit]	
Cc1cc2nc(SCC(=O)Nc3ccccc3C(=O)O)[nH]c2cc1C	0.83		
CSc1ncccc1C(=O)OCC(=O)NCCC1=CCCCC1			6.51 µM [falling, single point]
COc1cccc(C(C(=O)NCC2CCCO2)N(C(=O)Cn2nnc3ccccc32)c2ccc(NC(C)=O)cc2)c1OC (stereo unspecified)	6.31		
Cc1c(C(=O)Nc2ccc3oc(-c4cccnc4)nc3c2)oc2ccccc12	-27.7	29.1 µM [falling, single point]	
O=C(Nc1ccc(N2CCN(C(=O)c3ccccc3)CC2)cc1)c1cccnc1	10.9	29.1 µM [falling, single point]	
CN(C)c1oc(/C=C/c2ccccc2)nc1C#N	2.4	0.103 µM [rising, full curve, poor fit]	
Cn1c(CN2CCOCC2)nc2cc(NC(=O)c3ccc(Cl)cc3)ccc21	-13.9		
O=C(Nc1ncccc1Cl)c1ccc2c(c1)OCCO2	-23.2	0.651 µM [falling, single point]	
CCn1ncc(/C=N\NC(=O)c2cc(-c3ccc(C)cc3C)nc3ccccc23)c1C	28.2	0.731 µM [rising, single point]	2.06 µM [rising, full curve, poor fit]
COc1ccc(S(=O)(=O)N2CCN(CC(=O)Nc3cc(Cl)ccc3Cl)CC2)cc1	20.4	0.0116 µM [rising, full curve]	
CCCCCCN(C(=O)CCCCCN1C(=O)NC(c2ccc(-c3ccccc3)cc2)C(C(=O)OCc2ccccc2)=C1C)C(C(=O)NCCCC)c1ccc(OCC(=O)OC)cc1 (stereo unspecified)	-0.852	8.2 µM [rising, partial curve]	5.8 µM [falling, single point]

Structure (SMILES)	cell number change [%]	AC50 [1]	AC50 [2]
CC(C)CC1(C)NC(=O)N(CC(=O)N2C(C)CCCC2C)C1=O (stereo unspecified)	24.9		0.82 µM [falling, full curve]
CN1CCN(C(=O)c2ccc(CSc3ccc(Cl)cc3)cc2)CC1	-17.3	29.1 µM [falling, single point]	
O=[N+]([O-])c1ccc(Cl)c(S(=O)(=O)NC2=NCCC2)c1	9		
Cc1ncoc1C(=O)N1CCCC(C(=O)c2ccc(-c3ccccc3)c(F)c2)C1 (stereo unspecified)	-25.6	29.1 µM [falling, single point]	
CC(C)(C)c1[nH]nc2c1C(Cc1ccccc1)C(C#N)=C(N)O2 (stereo unspecified)		6.51 µM [falling, single point]	
O=C(COC(=O)c1ccc([N+](=O)[O-])o1)Nc1cccc(S(=O)(=O)N2CCCCC2)c1	-13	0.58 µM [falling, single point]	
CS(=O)(=O)N(CC(=O)Nc1ccc(F)cc1F)C1CCCCC1	10.4		
CCOc1ccc(-n2nnc3c(=O)n(CC(=O)c4ccccc4)cnc32)cc1	16.1	0.731 µM [rising, full curve]	
COC(=O)c1ccccc1S(=O)(=O)C(C)(C)C	12.2	1.46 µM [rising, partial curve, poor fit]	
O=c1c2ccccc2nnn1CSc1nnc(Nc2ccccc2)s1	0.209	2.06 µM [rising, single point]	
c1ccc(C(Cc2nc(-c3cccnc3)no2)c2ccccc2)cc1	20	1.84 µM [rising, partial curve]	
N#Cc1ccc(NC(=O)COC(=O)CCNS(=O)(=O)c2ccccc2)cc1	24.1	6.51 µM [falling, single point]	
COc1ccccc1NC(=O)C(C)Sc1nnnn1C (stereo unspecified)	-9.14		
O=C(Nc1nnc(-c2cccs2)o1)c1cc(-c2ccccc2)nc2ccccc12	13.4		2.06 µM [rising, single point]
O=[N+]([O-])c1ccc(N2CCN(S(=O)(=O)c3ccc(Cl)cc3)CC2)cc1NCc1cccnc1		0.82 µM [rising, full curve, poor fit]	0.82 µM [rising, full curve]
O=C(NNc1cc(N2CCCC2)nc(N2CCCC2)n1)c1ccc([N+](=O)[O-])cc1	-31.9	23.1 µM [falling, single point]	23.1 µM [falling, single point]

Reformatted as comma-separated lines: 2 of the compounds above.
Structure (SMILES),cell number change [%],AC50 [1],AC50 [2]
CCOc1ccc(-n2nnc3c(=O)n(CC(=O)c4ccccc4)cnc32)cc1,16.1,"0.731 µM [rising, full curve]",
COC(=O)c1ccccc1S(=O)(=O)C(C)(C)C,12.2,"1.46 µM [rising, partial curve, poor fit]",
